We go through 4 molecules from article PMC11997035.

By UniProt entry, the sequences of proteins in these tests, tags left out.
UniProt P61006: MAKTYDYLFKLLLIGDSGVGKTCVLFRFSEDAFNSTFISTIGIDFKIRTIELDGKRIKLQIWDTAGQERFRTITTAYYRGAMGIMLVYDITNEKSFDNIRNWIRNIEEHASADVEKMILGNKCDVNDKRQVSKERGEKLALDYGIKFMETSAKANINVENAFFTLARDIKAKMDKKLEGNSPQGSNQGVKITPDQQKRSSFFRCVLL
UniProt Q15836: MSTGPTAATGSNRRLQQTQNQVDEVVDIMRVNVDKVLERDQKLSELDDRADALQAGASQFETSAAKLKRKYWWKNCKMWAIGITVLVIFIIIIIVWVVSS

Results are given in words; binding and its absence hold for the method and conditions named. Binding seen in cells or lysates may run through a third protein. Some results given as binding are weak or reduced against the parent protein; the word gives no strength.

The target in experiment [1] is T1, CD73 (bait for binding partners in TNBC cells) (human) (UniProt P21589).
T1 sequence: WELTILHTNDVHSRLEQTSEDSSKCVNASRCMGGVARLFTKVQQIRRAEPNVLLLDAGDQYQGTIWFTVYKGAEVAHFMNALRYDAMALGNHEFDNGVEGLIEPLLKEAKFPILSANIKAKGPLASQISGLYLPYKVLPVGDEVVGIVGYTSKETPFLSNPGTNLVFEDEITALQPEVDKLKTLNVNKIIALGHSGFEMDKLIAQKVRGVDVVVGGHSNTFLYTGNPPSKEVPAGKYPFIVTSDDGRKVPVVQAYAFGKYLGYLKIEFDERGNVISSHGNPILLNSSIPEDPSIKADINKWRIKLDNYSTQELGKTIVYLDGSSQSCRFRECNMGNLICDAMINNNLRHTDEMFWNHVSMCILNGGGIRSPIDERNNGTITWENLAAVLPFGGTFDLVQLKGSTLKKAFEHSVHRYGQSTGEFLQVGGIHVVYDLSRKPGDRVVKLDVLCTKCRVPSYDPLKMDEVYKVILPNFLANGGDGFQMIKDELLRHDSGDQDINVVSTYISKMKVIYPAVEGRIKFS
Nature of the experiment: co-IP; co-immunoprecipitation of CD73 with vesicle-associated proteins (Supplementary Fig. 8a-c).

Experiment [2] concerns the target T1, CD73 (bait for binding partners in TNBC cells) (human). Description: proximity ligation; proximity ligation assay of CD73 with vesicle-associated proteins (Supplementary Fig. 8a-c).
Experiment [3] addresses T2, MGAT1 220–445 (human) (UniProt P26572).
T2 sequence: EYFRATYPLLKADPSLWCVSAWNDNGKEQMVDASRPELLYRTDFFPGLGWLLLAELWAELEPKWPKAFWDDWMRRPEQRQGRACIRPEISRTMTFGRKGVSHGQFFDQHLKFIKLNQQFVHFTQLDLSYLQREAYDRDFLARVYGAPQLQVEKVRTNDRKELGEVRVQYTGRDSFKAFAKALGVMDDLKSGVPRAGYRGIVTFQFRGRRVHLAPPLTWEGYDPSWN
Description: co-IP; Flag/HA-tagged truncation and deletion constructs of MGAT1 or CD73 co-transfected with the partner into HEK-293T cells; immunoblot. In general terms: Immunoblotting shows a protein as a band on a membrane.

In the case of RAB8A (from UniProt P61006 1-207), the binding result in experiment [1] and in experiment [2] was “binds” throughout.

Turning to VAMP3 (from UniProt Q15836 1-100), the binding result in experiment [1] and in experiment [2] was “binds” in each case.

B1: RAB13 (protein, UniProt P51153 1-203)
chain: MAKAYDHLFKLLLIGDSGVGKTCLIIRFAEDNFNNTYISTIGIDFKIRTVDIEGKKIKLQVWDTAGQERFKTITTAYYRGAMGIILVYDITDEKSFENIQNWMKSIKENASAGVERLLLGNKCDMEAKRKVQKEQADKLAREHGIRFFETSAKSSMNVDEAFSSLARDILLKSGGRRSGNGNKPPSTDLKTCDKKNTNKCSLG
Take B1: the binding result in experiment [1] and in experiment [2] was “binds” each time.

B2: CD73 (co-transfected with MGAT1 fragments) (enzyme, UniProt P21589 27-549)
chain: WELTILHTNDVHSRLEQTSEDSSKCVNASRCMGGVARLFTKVQQIRRAEPNVLLLDAGDQYQGTIWFTVYKGAEVAHFMNALRYDAMALGNHEFDNGVEGLIEPLLKEAKFPILSANIKAKGPLASQISGLYLPYKVLPVGDEVVGIVGYTSKETPFLSNPGTNLVFEDEITALQPEVDKLKTLNVNKIIALGHSGFEMDKLIAQKVRGVDVVVGGHSNTFLYTGNPPSKEVPAGKYPFIVTSDDGRKVPVVQAYAFGKYLGYLKIEFDERGNVISSHGNPILLNSSIPEDPSIKADINKWRIKLDNYSTQELGKTIVYLDGSSQSCRFRECNMGNLICDAMINNNLRHTDEMFWNHVSMCILNGGGIRSPIDERNNGTITWENLAAVLPFGGTFDLVQLKGSTLKKAFEHSVHRYGQSTGEFLQVGGIHVVYDLSRKPGDRVVKLDVLCTKCRVPSYDPLKMDEVYKVILPNFLANGGDGFQMIKDELLRHDSGDQDINVVSTYISKMKVIYPAVEGRIKFS
Turning to B2, the binding entry in experiment [3] is listed as “binds”.
